Measured values as given in PubChem BioAssay AID2685 (National Center for Advancing Translational Sciences (NCATS), 2010).
Values joined by “and” are separate entries in the source; they are usually repeats but may differ in a detail not shown here. Identical values can stand only once. The list shows a part of the results. These are further read-outs of the screen, such as a control signal, another cell line or another target. No call is given for them. Compounds called inactive in the main read-out are mostly missing here. Potencies come from curve fits of mixed quality, noted in brackets.

Assay: qHTS Assay for Lipid Storage Modulators in Drosophila S3 Cells;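 on cell number change: cells counted by Cell Tracker Red CMTPX staining in the red channel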
Conditions: BODIPY lipid droplet fluorescence, 18-24 h; for cell number change: measured here: cell count max response, cells fed with added oleic acid
How it was run: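 Laser-scanning cytometry quantifies lipid droplet accumulation (500–530 nm total intensity; droplet/cell object ratio) in oleic acid-fed (400 uM added) Drosophila S3 cells treated with a concentration series. 20 uM Triacsin C defined 100% inhibition.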

[1] = measured here: cell number channel AC50, cells fed with added oleic acid
[2] = measured here: lipid fluorescence (Fed channel) AC50, cells fed with added oleic acid

Row | Compound | cell number change [%] | AC50 [1] | AC50 [2]
1 | CC(=NCc1cccnc1)c1c(O)n(-c2ccccc2)c(=O)[nH]c1=O | -32.8 | 29.1 µM [falling, single point] | –
2 | C=C(C)Cn1c(=O)n(CC2CS2)c2ccccc21 (configuration not stated) | 45.6 | 9.2 µM [rising, partial curve, poor fit] | 13 µM [rising, partial curve]
3 | Cc1ccc(C)c(Cn2c(C(=O)O)c(C=O)c3ccccc32)c1 | 22.5 | – | 16.4 µM [rising, single point]
4 | COc1ccc2nc(NC(=O)CCc3nc(C4=CCN(C)CC4)no3)sc2c1 | – | – | 6.51 µM [rising, single point]
5 | CN(C)c1ccc(CCN2CCOCC2)cc1 | 24.3 | – | 6.51 µM [rising, single point]
6 | O=C1NC(=S)N(c2ccc(F)cc2)C(=O)/C1=C/c1ccco1 | 4.15 | – | 0.326 µM [falling, single point]
7 | Cc1cc(C=C2C(=O)NC(=S)NC2=O)c(C)n1-c1ccc2c(c1)OCO2 | -22.2 | – | 23.1 µM [falling, partial curve]
8 | O=C1C2CCCC1C(N1CCCC1)CC2 (configuration not stated) | -16.6 | – | 0.082 µM [falling, full curve, poor fit]
9 | CC(=O)N1N=C2C3CCN(CC3)C2C1c1ccc(Br)cc1 (configuration not stated) | -19.9 | – | 1.46 µM [falling, full curve, poor fit]
10 | Cc1ccccc1OCCN=Cc1c(O)n(C)c(=O)n(C)c1=O | -7.82 | – | 29.1 µM [falling, single point]
11 | COC(=O)C1C2c3ccccc3OC1(C)N=c1s/c(=C/c3cnn(C)c3)c(=O)n12 (configuration not stated) | 12.6 | 2.91 µM [rising, single point] | 14.6 µM [rising, single point]
12 | Brc1ccc(Oc2ccc(Br)cc2Br)c(Br)c1 | 15.5 | – | 0.116 µM [falling, single point]
13 | COc1ccc(C2c3c(nc(C)[nH]c3=O)Oc3c2c(=O)oc2ccccc32)cc1 (configuration not stated) | 13.3 | – | 0.651 µM [rising, full curve, poor fit]
14 | CN1C(=O)N(C)C(=O)C2(Cc3cc(NC(=O)c4ccc(F)cc4)ccc3N3CCCC32)C1=O (configuration not stated) | 21.8 | 4.61 µM [rising, single point] | 29.1 µM [rising, single point]
15 | CCOC(=O)c1c(N)n(CCN2CCOCC2)c2nc3ccccc3nc12 | 4.84 | 5.17 µM [rising, partial curve] | 2.59 µM [rising, single point]
16 | C[C@@]1(CO)[C@H](O)CC[C@@]2(C)[C@H]1CC[C@H]1C[C@@H]3C[C@@]12CC[C@]3(O)CO | – | 0.206 µM [falling, full curve, poor fit] | 0.146 µM [falling, full curve]
17 | CCOP(=O)(OCC)C(NC(C)=O)C(=O)c1ccccc1 (configuration not stated) | – | 0.184 µM [rising, full curve, poor fit] | –
18 | C=CCN1C(=O)NC(=O)/C(=C\c2ccc(-c3ccccc3[N+](=O)[O-])o2)C1=O | -35.1 | 6.51 µM [falling, single point] | 4.11 µM [falling, single point]
19 | O=c1[nH]c(=S)[nH]c(O)c1N=Nc1ccc(SC(F)F)cc1 | 0.874 | – | 0.00411 µM [falling, full curve, poor fit]
20 | CCCCCCn1c(=O)c(C(=O)Nc2cnccn2)c(O)c2ccccc21 | -34.4 | 32.6 µM [falling, partial curve, poor fit] | 11.6 µM [falling, partial curve, poor fit]
21 | Cn1nc(-c2ccc(OCC(=O)N3CCN(Cc4ccccc4)CC3)cc2)c2ccccc2c1=O | 0.203 | 6.51 µM [rising, single point] | 6.51 nM [falling, full curve] and 6.51 µM [rising, single point]
22 | CCCCCC[N+](=O)[O-] | 1.03 | 0.92 µM [falling, single point] | 1.16 µM [falling, single point]
23 | CN1CCN(Cc2cc(=O)n3ccsc3n2)CC1 | 32.4 | – | –
24 | COC(=O)C1=C(c2cccc(OCc3ccccc3)c2)C[C@@H]2CC[C@H]1N2C(=O)NCCc1ccc(F)cc1 | -7.8 | 2.91 µM [falling, single point] | –
25 | c1ccc(P(c2ccccc2)c2ccccn2)cc1 | -8 | – | 0.082 µM [falling, full curve, poor fit]
26 | O=c1[nH]c(=O)n(CCC2=CCCCC2)c(O)c1C=Nc1cccc(F)c1 | -34.8 | 0.731 µM [falling, full curve, poor fit] | –
27 | Cc1cc(OCC(=O)Nc2cc(C)nn2-c2ccccn2)c2c3c(c(=O)oc2c1)CCC3 | 30.1 | 0.366 µM [rising, full curve] | 0.92 µM [rising, partial curve]
28 | CCc1ccc(N2C(=O)NC(=O)C(Cc3ccc(OC)cc3OC)C2=O)cc1 (configuration not stated) | – | – | 0.326 µM [falling, partial curve, poor fit]

Row | Compound | cell number change [%] | AC50 [1] | AC50 [2]
29 | Cc1ccc(C(=O)N[C@@H](C)CN2C3=NC[C@H](Cc4ccccc4)N3C[C@H]2Cc2ccc(O)cc2)cc1Br | -67.6 | 32.6 µM [falling, single point] | 5.8 µM [falling, partial curve]
30 | CCCCNC(=O)c1c(N)n(Cc2ccc3c(c2)OCO3)c2nc3ccccc3nc12 | 19.7 | 0.366 µM [rising, full curve, poor fit] | –
31 | O=C1CC(=O)N(c2ccc(Cl)cc2)C(=O)N1 | 16.8 | – | 29.1 µM [rising, single point]
32 | CCC(C(=O)N1C[C@H]2C[C@@H](C1)c1cccc(=O)n1C2)c1ccccc1 (some centres not stated) | 9.45 | – | 25.9 µM [rising, single point]
33 | COc1ccc(NC(=O)N2CCC3(CC2)OCCO3)c(OC)c1 | -34.4 | 0.651 µM [falling, full curve, poor fit] | –
34 | COCCNC(=O)CN1C(=O)CN=C(c2ccccc2)c2ccccc21 | 19.6 | – | 1.46 µM [falling, partial curve, poor fit]
35 | CCCC(C)n1[nH]c(=O)c2c1NC(=O)CSC2c1ccc(OC)c(OC)c1 (configuration not stated) | 7.21 | – | 32.6 µM [rising, single point]
36 | Cc1c2cnn(CC(=O)N3CCC4(CC3)OCCO4)c(=O)c2c(C)n1Cc1ccc(F)cc1 | -2.32 | – | 29.1 µM [rising, single point]
37 | O=C(Cc1ccccc1)NC(Oc1ccccc1Cl)C(Cl)(Cl)Cl (configuration not stated) | 5.18 | 7.31 µM [falling, partial curve] | 4.61 µM [falling, single point]
38 | CC/C(=N\Nc1cccc2ccccc12)c1c(O)[nH]c(=O)[nH]c1=O | 13.4 | 1.84 µM [rising, partial curve] | 0.082 µM [rising, full curve, poor fit]
39 | Cc1cc(C(=O)CN2CCCC2)c(C)n1-c1ccc(F)cc1 | – | 5.17 µM [rising, partial curve, poor fit] | –
40 | Cc1cc(C=O)c(C)n1C1CCCCC1 | 3.13 | – | 0.411 µM [falling, single point]
41 | CC1CCC/C=C/C2CC(O)CC2C(O)/C=C/C(=O)O1 (configuration not stated) | -68.7 | 29.1 µM [falling, single point] | –
42 | O=C(O)c1ccccc1NC(=O)C1C2CCC(O2)C1C(=O)O (configuration not stated) | 12.8 | – | 29.1 µM [falling, single point]
43 | CCOC(=O)C(C)Oc1cc(C)cc2oc(=O)c3c(c12)CCCC3 (configuration not stated) | 0.797 | – | 0.164 µM [rising, full curve, poor fit]
44 | Cc1c(Oc2cc(NN3CCCCC3)c([N+](=O)[O-])cc2[N+](=O)[O-])cccc1[N+](=O)[O-] | -14.7 | – | –
45 | CCC(=NCc1ccc2c(c1)OCO2)c1c(O)n(C)c(=O)n(C)c1=O | -27.5 | – | –
46 | CCCC(C)C1(CC)C(=O)NC(=Nc2ccc(F)cc2)NC1=O (configuration not stated) | -65.2 | 29.1 µM [falling, single point] | –
47 | Cc1ccc(N2C(=O)NC(=O)/C(=C/C=C/c3ccco3)C2=O)cc1 | -45.6 | 11.6 µM [falling, partial curve] | 9.2 µM [falling, partial curve]
48 | CCN1CCN(Cc2ccc(C)cc2)CC1 | -75.9 | 29.1 µM [falling, partial curve, poor fit] | 0.00461 µM [falling, full curve, poor fit]
49 | CCCCn1c(=O)c(C(=O)Nc2ncccc2C)c(O)c2ccccc21 | 23.7 | – | 29.1 µM [rising, single point]
50 | CN(C)C1=C(C#N)C(c2ccccc2)=NP(N(C)C)(N(C)C)=N1 | 10.1 | – | 3.66 µM [rising, partial curve, poor fit]
51 | CC1=NN(c2ccccc2)C(=O)/C1=C/c1c(O)[nH]c(=O)[nH]c1=O | -22.1 | – | –
52 | N#CC(C#N)=Cc1ccc(C=C(C#N)C#N)cc1 | -10.3 | – | 6.51 µM [falling, partial curve]
53 | Cc1cc(C)n2nc(SCC(=O)N3CCC4(CC3)OCCO4)nc2n1 | – | 2.06 µM [falling, partial curve] | –
54 | CC(C)C1(C)N=C(c2nc3ccccc3cc2C(=O)O)NC1=O (configuration not stated) | -60.8 | 1.84 µM [falling, full curve] | 29.1 µM [falling, single point]
55 | CCN(CC)c1ccc(CNCCc2ccccc2F)cc1 | -12 | 6.51 µM [falling, single point] | 6.51 µM [falling, single point]
